{"sequences": {"note": "Protein sequences, listed by entry. Tags and fused reporters are not part of them. Lines headed by an entry give the natural chain unless they say otherwise; changes in a name come on top.", "UniProt Q01638": "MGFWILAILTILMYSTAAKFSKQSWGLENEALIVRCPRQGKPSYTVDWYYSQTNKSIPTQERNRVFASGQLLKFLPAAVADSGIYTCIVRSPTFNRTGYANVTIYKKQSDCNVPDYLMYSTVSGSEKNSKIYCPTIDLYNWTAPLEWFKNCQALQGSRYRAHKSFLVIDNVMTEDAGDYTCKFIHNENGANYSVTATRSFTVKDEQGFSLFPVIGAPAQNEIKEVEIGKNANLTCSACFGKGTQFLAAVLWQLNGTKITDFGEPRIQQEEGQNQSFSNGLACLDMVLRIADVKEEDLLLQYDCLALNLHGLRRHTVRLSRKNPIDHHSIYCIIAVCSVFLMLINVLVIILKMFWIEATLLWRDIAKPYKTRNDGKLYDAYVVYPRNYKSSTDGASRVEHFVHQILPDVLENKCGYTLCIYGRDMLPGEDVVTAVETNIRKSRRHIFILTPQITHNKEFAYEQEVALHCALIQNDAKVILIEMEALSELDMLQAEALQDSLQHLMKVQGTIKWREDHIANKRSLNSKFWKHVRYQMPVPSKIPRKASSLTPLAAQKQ"}, "source": "PubChem BioAssay AID1259354", "about": "(Paczesny and Yang Labs, IUPUI and University of Michigan, 2018)", "note": "In all, about 78,000 compounds went through this assay and about 1,800 (2.3%) were called active. The shares of active, inactive and inconclusive entries below differ from those in the screen. Cut-off read from the data, not from the text of the source: active = inhibition above about 30%; inconclusive = mostly about 10% to 28%; inactive = weaker than that."}
{"target": "Interleukin-1 receptor-like 1 (Homo sapiens) (UniProt Q01638)", "test": "blocks human ST2 binding to IL-33, primary screen, biochemical, AlphaLISA (AID 1259354)", "conditions": "AlphaLISA ST2-Fc/biotin-IL-33 interaction, 1 h; at 17 µM, hits give high values"}
{"smiles": "COc1ccc(-c2csc(NC(=O)c3ccc(Br)cc3F)n2)cc1OC", "inhibition": "inconclusive: 24%"}
{"smiles": "Cc1cc2nc(-c3ccc(C)c(NC(=O)C(C)C)c3)oc2cc1C", "inhibition": "inactive"}
{"smiles": "CCOC(=O)c1coc(N2CCOC(c3ccc(Cl)cc3)C2)n1", "note": "(stereo unspecified)", "inhibition": "inconclusive: 15%"}
{"smiles": "Cc1ccn2c(Nc3ccc4c(c3)OCO4)c(-c3ccco3)nc2c1", "inhibition": "inconclusive: 20%"}
{"smiles": "O=C(Nc1ccccc1)N1CCC(N2CCCC(C(=O)N3CCOCC3)C2)CC1", "note": "(stereo unspecified)", "inhibition": "inactive"}
{"smiles": "N#CC1=C2SCN(Cc3ccco3)CN2C(=O)CC1c1c(F)cccc1Cl", "note": "(stereo unspecified)", "inhibition": "inconclusive: 13%"}
{"smiles": "CCOC(=O)C1(Cc2ccc(F)cc2F)CCCN(C(=O)c2ccc3c(c2)no[n+]3[O-])C1", "note": "(stereo unspecified)", "inhibition": "inconclusive: 20%"}
{"smiles": "CCOc1cccc(OCCn2cnc3ccccc3c2=O)c1", "inhibition": "inconclusive: 10%"}
{"smiles": "O=S(=O)(NCc1ccc(Cl)cc1)c1cccc2nonc12", "inhibition": "inconclusive: 11%"}
{"smiles": "O=C(CSc1oc(-c2cccs2)nc1S(=O)(=O)c1ccccc1)c1ccccc1", "inhibition": "inconclusive: 13%"}
{"smiles": "CCOC(=O)C1CCCN(C(=O)CSc2c3c(nc4ccc(Cl)cc24)CCCC3)C1", "note": "(stereo unspecified)", "inhibition": "inconclusive: 27%"}
{"smiles": "O=C(CSc1nc2ccccc2s1)NC1=NN=C(c2ccccc2)CS1", "inhibition": "inconclusive: 12%"}
{"smiles": "Cc1ccc(NCC(O)COc2ccccc2)cc1C", "note": "(stereo unspecified)", "inhibition": "active: 35%"}
{"smiles": "CC1CCN([C@@H]2[C@H](O)[C@H](CO)O[C@@H]2CNC(=O)c2cccs2)CC1", "inhibition": "inactive"}
{"smiles": "C=CCOc1ccc(C=Nc2cccc(Cl)c2)c(O)c1", "inhibition": "inconclusive: 14%"}
{"smiles": "COc1ccc2oc(=O)c(-c3nc(-c4ccc5ccccc5c4)cs3)cc2c1", "inhibition": "inconclusive: 17%"}
{"smiles": "O=C1NN(c2ccc(Cl)c(Cl)c2)C(=O)/C1=C/c1ccc(-c2ccc3c(c2)C(=O)NC3=O)o1", "inhibition": "inactive"}
{"smiles": "O=C(Cn1cnc2c(oc3ccccc32)c1=O)NCc1ccccc1", "inhibition": "inconclusive: 15%"}
{"smiles": "O=C(Nc1cccc(N2CCCS2(=O)=O)c1)c1ccc(C(F)(F)F)cc1", "inhibition": "inconclusive: 16%"}
{"smiles": "Cc1ccc(Nc2c(-c3ccc(Cl)cc3)nc3cnccn23)cc1", "inhibition": "inactive"}
{"smiles": "O=C(Nc1ccc(N2CCCC2)cc1)c1ccc(F)cc1", "inhibition": "active: 57%"}
{"smiles": "CC(C)Cc1ccc(S(=O)(=O)NC2CCCC(C)C2C)cc1", "note": "(stereo unspecified)", "inhibition": "inactive"}
{"smiles": "NC1=NC(=O)CC(C(=O)Nc2cc(Cl)cc(Cl)c2)S1", "note": "(stereo unspecified)", "inhibition": "inactive"}
{"smiles": "Nc1nccc(N2CCOC(CC(c3ccccc3)c3ccccc3)C2)n1", "note": "(stereo unspecified)", "inhibition": "inconclusive: 20%"}
{"smiles": "CCC(CC)C(=O)Nc1ccc([C@@H](O)[C@H]2COCC(=O)N2CC)cc1", "inhibition": "inconclusive: 10%"}
{"smiles": "CC(=O)c1n[nH]nc1NC(=O)c1ccccc1", "inhibition": "inconclusive: 19%"}
{"smiles": "O=C(Nc1ccc(Cl)cn1)C1(c2ccccc2)CC1(Cl)Cl", "note": "(stereo unspecified)", "inhibition": "inconclusive: 13%"}
{"smiles": "CN(Cc1cc(-c2ccccc2)on1)C(=O)c1cc(C2CC2)[nH]n1", "inhibition": "inconclusive: 11%"}
{"smiles": "FC(F)(F)c1cc(-c2cccs2)nc(NCC2CCCO2)n1", "note": "(stereo unspecified)", "inhibition": "inactive"}
{"smiles": "CCOc1ccc(N2S(=O)(=O)c3ccccc3S2(=O)=O)cc1", "inhibition": "inactive"}
{"smiles": "O=C(c1cccc2c1OCC2)N1CCN(Cc2ccccc2CO)CC1", "inhibition": "inactive"}
{"smiles": "Cc1nc(N2CCCC(C(=O)NCc3cc(F)ccc3F)C2)nc2cc(S(C)(=O)=O)ccc12", "note": "(stereo unspecified)", "inhibition": "inactive"}
{"smiles": "COc1cc(N2CCC(C(O)c3cccnc3)CC2)ncn1", "note": "(stereo unspecified)", "inhibition": "inconclusive: 15%"}
{"smiles": "O=C(NCCSc1c[nH]c2ccccc12)c1ccc(S(=O)(=O)N2CCOCC2)cc1", "inhibition": "inconclusive: 21%"}
{"smiles": "Cc1cnc(C(=O)N2CCCC(C(=O)Nc3ccc(-c4cccc(F)c4)cc3)C2)cn1", "note": "(stereo unspecified)", "inhibition": "inconclusive: 20%"}
{"smiles": "COc1cc(OC)c(N(C)C(=O)Cc2c(C(=O)O)[nH]c3ccc(Cl)cc23)cc1Cl", "inhibition": "inconclusive: 16%"}
{"smiles": "Cc1cc(N2CCN(C)CC2)nc2ccc(NC(=O)/C=C/c3cccs3)cc12", "inhibition": "inactive"}
{"smiles": "C=C1C(C)(C)[C@H]2CC[C@@]1(C(=O)N1CCC(CN3CCCC3=O)CC1)C2", "inhibition": "inactive"}
{"smiles": "CCCc1cc(NCCOC)n2c(nc3ccccc32)c1C#N", "inhibition": "inactive"}
{"smiles": "CCc1ccccc1NC(=O)NCCc1nc2cccnc2n1Cc1ccc(C)cc1", "inhibition": "inconclusive: 14%"}
{"smiles": "CN1CCC(N2CC[C@@H]3[C@H]2C(=O)NC[C@H](CCC(=O)N2CCOCC2)N3C)CC1", "inhibition": "inconclusive: 19%"}
{"smiles": "COc1ccc(CCNC(=O)CSc2nc3sc(C)c(C)c3c(=O)n2C)cc1OC", "inhibition": "inconclusive: 13%"}
{"smiles": "CC(=O)N1CCN(c2ncccc2CNC(=O)c2ccc3ccccc3c2)CC1", "inhibition": "inconclusive: 10%"}
{"smiles": "O=C(CCN1CCCC(N2CCCC2=O)C1)c1ccc(F)cc1", "note": "(stereo unspecified)", "inhibition": "inconclusive: 10%"}
{"smiles": "Cc1cnn(Cc2cccc(F)c2)c1NC(=O)CSc1ccncc1", "inhibition": "inconclusive: 18%"}
{"smiles": "c1ccc(-c2nc3sccn3c2Nc2ccc3c(c2)OCCO3)cc1", "inhibition": "inactive"}
{"smiles": "Cc1ccc(-c2nnc(-c3nc(NCCCN4CCCC4=O)c4ccccc4n3)o2)cc1", "inhibition": "inconclusive: 10%"}
{"smiles": "CCNC(=O)c1ccc(C2CCCN2C(=O)Cn2cnc3ccccc32)s1", "note": "(stereo unspecified)", "inhibition": "inconclusive: 14%"}
{"smiles": "CC1CCC(NC(=O)C(NS(=O)(=O)c2cccc3nsnc23)C(C)C)CC1", "note": "(stereo unspecified)", "inhibition": "inconclusive: 12%"}
{"smiles": "CC12CN3CC(C)(CN(C1)C3c1ccc([N+](=O)[O-])cc1)C2=O", "note": "(stereo unspecified)", "inhibition": "inactive"}
{"smiles": "COc1ccc(NC(=O)c2cc3c(=O)n4cccc(C)c4nc3n2C)cc1OC", "inhibition": "inconclusive: 29%"}
{"smiles": "O=C(NCc1cccnc1)c1cc2c(=O)oc3ccccc3c2s1", "inhibition": "inactive"}
{"smiles": "CC(C)c1nc(CCN(C)c2nc(CCN)nc3ccccc23)no1", "inhibition": "inconclusive: 20%"}
{"smiles": "Cc1cccc(C(=O)N2CCC(C3=CCN(CC(N)=O)CC3)CC2)c1", "inhibition": "inconclusive: 28%"}
{"smiles": "COC(=O)c1c(NC(=O)c2ccncc2)sc2c1C(C(=O)OC)CC2", "note": "(stereo unspecified)", "inhibition": "inconclusive: 10%"}
{"smiles": "CC(C)COc1ncnc2c1sc1nc3c(cc12)COC(C)(C)C3", "inhibition": "inconclusive: 12%"}
{"smiles": "COc1ccc(/C=C2\\SC(=N)N(c3ccc(OC)cc3)C2=O)cc1", "inhibition": "inconclusive: 19%"}
{"smiles": "O=C(CN1CCN(Cc2ccc(F)cc2)C1=O)NCc1ccco1", "inhibition": "inactive"}
{"smiles": "Cc1cc(C)c2ccc(CO)nc2c1O", "inhibition": "inactive"}
{"smiles": "O=C(CN1C(=O)/C(=C\\c2ccc(C(F)(F)F)cc2)Sc2ccccc21)NC1CCCC1", "inhibition": "inconclusive: 17%"}
{"smiles": "COc1ccc(CCNc2oc(COc3ccc(OC)cc3)nc2C#N)cc1", "inhibition": "active: 36%"}
